The assay concerns CD2F1 mice, L1210 leukemia ip, survival T/C. In words: NCI In Vivo Anticancer Drug Screen. Data for tumor model L1210 Leukemia (intraperitoneal) in CD2F1 (CDF1) mice. The following applies: higher T/C = longer survival. The procedure, abridged: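 Tumor-bearing mice (transplanted tumor) were split into treated and vehicle control groups, and the measured endpoint of each treated group was divided by that of its vehicle controls.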

The mark [1] stands for this setting: T/C endpoint: mean survival time, dose: 200.0 mg/kg/injection, schedule: Q01DX009 (ip), vehicle: saline.
Where [2] appears, read: T/C endpoint: mean survival time, dose: 200.0 mg/kg/injection, schedule: Q04DX003 (ip), vehicle: saline with Tween-80.
Setting [3] is: T/C endpoint: mean survival time, dose: 400.0 mg/kg/injection, schedule: Q04DX003 (ip), vehicle: saline with Tween-80.
[4] abbreviates: T/C endpoint: mean survival time, dose: 400.0 mg/kg/injection, schedule: Q01DX001 (ip), vehicle: saline with Tween-80.
Where [5] appears, read: T/C endpoint: mean survival time, dose: 25.0 mg/kg/injection, schedule: Q01DX001 (ip), vehicle: saline with Tween-80.
[6] abbreviates: T/C endpoint: mean survival time, dose: 300.0 mg/kg/injection, schedule: Q01DX001 (ip), vehicle: saline.

The list shows only some results of the screen, not a fair sample: it is rich in T/C values a quarter to a half above the control, in often repeated tests (any T/C) and in doses without a T/C. Further doses and runs are listed elsewhere. T/C gives the treated animals as a percentage of the vehicle group. Some doses have a count of surviving animals in place of a T/C: the source files T/C as zero there, which appears to mark a toxic dose or a test without result, not a measured value. Some doses without a T/C left all or most animals alive at the check, yet need not have been tolerated: the source hardly ever lists a survival T/C far under the control, and the zero likely stands for such cases as well. Survivors were counted at the toxicity check, usually on the fifth day, unless a day is given; later deaths do not show. Schedules are NCI's codes, taken here to give the interval after Q, in days (D) or hours (H), and the number of doses after X. Marks such as (2×) give the number of equal values in this list. For survival time, this PubChem deposit counts one and a half times the control or more as active, and values a quarter to a half above the control carry no call in these data; other NCI protocols may use other cut-offs. Some T/C values are followed by the survivors on the day toxicity was checked, most often the fifth; where none is given, no animal had died by that day.

With `CCC[S][Pb]([c]1ccccc1)([c]1ccccc1)[c]1ccccc1`, the survivor count runs as follows: (T/C endpoint: mean survival time, dose: 100.0 mg/kg/injection, schedule: Q01DX001 (ip), vehicle: Klucel (hydroxypropylcellulose) (HPC)) 2 of 6; (T/C endpoint: mean survival time, dose: 200.0 mg/kg/injection, schedule: Q01DX001 (ip), vehicle: Klucel (hydroxypropylcellulose) (HPC)) 0 of 6; (T/C endpoint: mean survival time, dose: 400.0 mg/kg/injection, schedule: Q01DX001 (ip), vehicle: Klucel (hydroxypropylcellulose) (HPC)) 0 of 6.

On to `CC(=O)NC1(C(=O)O)SCCCS1`, for which, where the note is “T/C endpoint: mean survival time, dose: 200.0 mg/kg/injection, schedule: Q04DX002 (ip), vehicle: saline with Tween-80”, the survivor count is 3 of 3.

In the case of `CC(=O)N(C)O`, the T/C was 125 % of control (T/C endpoint: median survival time, dose: 100.0 mg/kg/injection, schedule: Q01DX009 (ip), vehicle: saline with Tween-80) and 149 % of control (T/C endpoint: median survival time, dose: 200.0 mg/kg/injection, schedule: Q01DX009 (ip), vehicle: saline with Tween-80). The survivor count (T/C endpoint: median survival time, dose: 400.0 mg/kg/injection, schedule: Q01DX009 (ip), vehicle: saline with Tween-80) was 6 of 6.

As for `CC1OC(n2cc(C(N)=O)c3c(N)ncnc32)C(O)C1O` (stereo not given), the survivor count is 3 of 6 under setting [1] and 2 of 6 (T/C endpoint: mean survival time, dose: 400.0 mg/kg/injection, schedule: Q01DX009 (ip), vehicle: saline).

Regarding `CC(=O)Nc1ccc(SC(=O)N(C)C)cc1`, the survivor count under setting [2] is 2 of 6 and the survivor count under setting [3] is reported as 0 of 6.

In the case of `CCC(C)C(C(=O)OCC[N+](C)(CC)CC)c1ccc(C)c(C)c1` (stereo not given), the survivor count (T/C endpoint: mean survival time, dose: 100.0 mg/kg/injection, schedule: Q04DX003 (ip), vehicle: saline) was 0 of 6; the survivor count (T/C endpoint: mean survival time, dose: 200.0 mg/kg/injection, schedule: Q04DX003 (ip), vehicle: saline) is 0 of 6; the survivor count (T/C endpoint: mean survival time, dose: 400.0 mg/kg/injection, schedule: Q04DX003 (ip), vehicle: saline) is given as 0 of 6.

In the case of `CCCCCCCCCC(=O)NC(=S)Nc1ccc(C(=O)OCCCC)cc1`, the survivor count under setting [4] is 6 of 6.

Take `COc1cc([N+](=O)[O-])ccc1NC(=O)NCCc1ccccc1`: the survivor count under setting [4] is on record as 3 of 3.

As to `[CH3][Sn]([CH3])([CH3])[CH2]CCBr`, the survivor count reads like this: (T/C endpoint: mean survival time, dose: 1.56 mg/kg/injection, schedule: Q01DX009 (ip), vehicle: saline) 0 of 3; (T/C endpoint: mean survival time, dose: 6.25 mg/kg/injection, schedule: Q01DX009 (ip), vehicle: saline with Tween-80) 2 of 3; (T/C endpoint: mean survival time, dose: 12.5 mg/kg/injection, schedule: Q01DX009 (ip), vehicle: saline with Tween-80) 1 of 3; (T/C endpoint: mean survival time, dose: 25.0 mg/kg/injection, schedule: Q01DX009 (ip), vehicle: saline with Tween-80) 0 of 3; (T/C endpoint: mean survival time, dose: 100.0 mg/kg/injection, schedule: Q01DX009 (ip), vehicle: saline) 3 of 3; under setting [1], 0 of 3.

Consider `C1CCC(CCC2CCCC[N-]2)[N-]C1.C1CCC(CCC2CCCC[N-]2)[N-]C1.[Ni+2].[O-][Cl+3]([O-])([O-])O` (stereo not given), for which the survivor count under setting [5] is 3 of 3; the survivor count (T/C endpoint: mean survival time, dose: 200.0 mg/kg/injection, schedule: Q01DX001 (ip), vehicle: saline) is given as 0 of 3; the survivor count (T/C endpoint: mean survival time, dose: 400.0 mg/kg/injection, schedule: Q01DX001 (ip), vehicle: saline) is 0 of 3. For the same compound, the T/C was 139 % of control (T/C endpoint: mean survival time, dose: 50.0 mg/kg/injection, schedule: Q01DX001 (ip), vehicle: saline with Tween-80) and 131 % of control [2 of 3 alive] (T/C endpoint: mean survival time, dose: 50.0 mg/kg/injection, schedule: Q01DX001 (ip), vehicle: saline).

On to `C(=Nc1ccc(-c2ccccc2)cc1)c1ccccc1`, for which the survivor count (T/C endpoint: mean survival time, dose: 200.0 mg/kg/injection, schedule: Q01DX009 (ip), vehicle: saline with Tween-80) is given as 5 of 6.

Regarding `O=C(O)c1cccc(COc2ccc([N+](=O)[O-])cc2Cl)c1`, the survivor count (T/C endpoint: mean survival time, dose: 400.0 mg/kg/injection, schedule: Q01DX009 (ip), vehicle: saline with Tween-80) was 0 of 6.

Consider `CN(Cc1ccccc1)CC1(CO)CC=CCC1` (stereo not given), for which the survivor count under setting [6] is on record as 2 of 6.

For the compound `CC(C)(C)C1Sc2nc3ccccc3n2C1=O` (stereo not given), the survivor count (T/C endpoint: mean survival time, dose: 100.0 mg/kg/injection, schedule: Q04DX003 (ip), vehicle: Klucel (hydroxypropylcellulose) (HPC)) is recorded as 0 of 6; the survivor count (T/C endpoint: mean survival time, dose: 200.0 mg/kg/injection, schedule: Q04DX003 (ip), vehicle: Klucel (hydroxypropylcellulose) (HPC)) is listed as 0 of 6; the survivor count (T/C endpoint: mean survival time, dose: 400.0 mg/kg/injection, schedule: Q04DX003 (ip), vehicle: Klucel (hydroxypropylcellulose) (HPC)) is reported as 0 of 6.

As to `Nc1ccc(OC(=O)c2ccccc2)cc1`, for the setting “T/C endpoint: mean survival time, dose: 50.0 mg/kg/injection, schedule: Q01DX009 (ip), vehicle: saline with Tween-80”, the survivor count is listed as 6 of 6.

Turning to `NC1CCCCC1N.O=C([O-])c1ccc(N=Nc2cccc([N+](=O)[O-])c2)cc1[O-].[Pt+4]`, the T/C runs as follows: (T/C endpoint: median survival time, dose: 50.0 mg/kg/injection, schedule: Q04DX003 (ip), vehicle: saline with Tween-80) 125 % of control; (T/C endpoint: median survival time, dose: 100.0 mg/kg/injection, schedule: Q04DX003 (ip), vehicle: saline with Tween-80) 141 % of control.

Consider `CCNc1ncnc2nncnc12`, for which the survivor count is 2 of 6 (T/C endpoint: mean survival time, dose: 200.0 mg/kg/injection, schedule: Q01DX001 (ip), vehicle: carboxymethylcellulose (CMC)) and 0 of 6 (T/C endpoint: mean survival time, dose: 400.0 mg/kg/injection, schedule: Q01DX001 (ip), vehicle: carboxymethylcellulose (CMC)).

Regarding `C=CC1=CC(=O)OC1=O`, the survivor count (T/C endpoint: mean survival time, dose: 75.0 mg/kg/injection, schedule: Q01DX001 (ip), vehicle: saline) is 0 of 6 (2×); the survivor count (T/C endpoint: mean survival time, dose: 150.0 mg/kg/injection, schedule: Q01DX001 (ip), vehicle: saline) was 0 of 6 (2×); the survivor count under setting [6] is 0 of 6 (2×).

Turning to `CC(C)(C)C1CCS(=O)(=O)CC1.[Cl][Hg][Cl]`, the survivor count is listed as 0 of 6 (T/C endpoint: mean survival time, dose: 5.0 mg/kg/injection, schedule: Q04DX003 (ip), vehicle: saline sonified); 0 of 6 (T/C endpoint: mean survival time, dose: 10.0 mg/kg/injection, schedule: Q04DX003 (ip), vehicle: saline sonified); 0 of 6 (T/C endpoint: mean survival time, dose: 20.0 mg/kg/injection, schedule: Q04DX003 (ip), vehicle: saline sonified); 0 of 6 (T/C endpoint: mean survival time, dose: 100.0 mg/kg/injection, schedule: Q04DX003 (ip), vehicle: saline with Tween-80); 0 of 6 under setting [2]; 0 of 6 under setting [3].

Take `O=C(NCCNC(=O)c1ccccc1)c1ccccc1`: the survivor count runs as follows: (T/C endpoint: median survival time, dose: 100.0 mg/kg/injection, schedule: Q04DX002 (ip), vehicle: saline with Tween-80) 3 of 3; (T/C endpoint: median survival time, dose: 200.0 mg/kg/injection, schedule: Q04DX002 (ip), vehicle: saline with Tween-80) 3 of 3; (T/C endpoint: median survival time, dose: 400.0 mg/kg/injection, schedule: Q04DX002 (ip), vehicle: saline with Tween-80) 3 of 3.

Take `O=C/C=C/C=O`: the survivor count under setting [5] is 0 of 3.

Turning to `COc1ccccc1OC(=O)Nc1ccc(C)c([N+](=O)[O-])c1`, the survivor count under setting [2] is 6 of 6.

As for `OCC1OC(n2cnc3c(SSc4ncnc5c4ncn5C4OC(CO)C(O)C4O)ncnc32)C(O)C1O` (stereo not given), the T/C (T/C endpoint: mean survival time, dose: 267.0 mg/kg/injection, schedule: Q01DX009 (ip), vehicle: saline) is 143 % of control. Besides, the survivor count (T/C endpoint: mean survival time, dose: 600.0 mg/kg/injection, schedule: Q01DX009 (ip), vehicle: saline) is 3 of 6.

As for `CCC[CH2][Sn]1([CH2]CCC)[O]OC(c2ccc(C(=O)OCC)cc2)[O]1` (stereo not given), the survivor count reads like this: (T/C endpoint: mean survival time, dose: 6.25 mg/kg/injection, schedule: Q04DX002 (ip), vehicle: other) 3 of 3; (T/C endpoint: mean survival time, dose: 100.0 mg/kg/injection, schedule: Q04DX002 (ip), vehicle: other) 0 of 3; (T/C endpoint: mean survival time, dose: 200.0 mg/kg/injection, schedule: Q04DX002 (ip), vehicle: other) 0 of 3; (T/C endpoint: mean survival time, dose: 400.0 mg/kg/injection, schedule: Q04DX002 (ip), vehicle: other) 0 of 3.

As to `O=C(Nc1ccccc1)OC1CCCCC1OC(=O)Nc1ccccc1` (stereo not given), the survivor count reads like this: (T/C endpoint: mean survival time, dose: 100.0 mg/kg/injection, schedule: Q01DX001 (ip), vehicle: saline with Tween-80) 6 of 6; (T/C endpoint: mean survival time, dose: 200.0 mg/kg/injection, schedule: Q01DX001 (ip), vehicle: saline with Tween-80) 6 of 6.
